At least one compound was matched to its structure with a doubt left.
System: peripheral gene expression pathways
Test: Peripheral gene expression pathways (affymetrix gene chip) before and after lithium monotherapy
Assay type: in vivo, human
Details: p=0.05

Compound: [Li] [Lithium, lithium]
- changes in the peripheral gene expression pathways: changes in the peripheral gene expression pathways

From US20200155062A1, “MONITORING THE EFFECTS OF THERAPEUTICS ON THE BRAIN VIA GENE EXPRESSION AND BRAIN IMAGING” (THE CLEVELAND CLINIC FOUNDATION, priority 2018, published 2020)
